This note sets out measurements from PMC6667905.

Assay [1] addresses T1, Dam1 (yeast outer kinetochore/microtubule-associated protein) fused with the N-terminal part of Venus (VN173) (yeast) (UniProt P53267).
T1 sequence: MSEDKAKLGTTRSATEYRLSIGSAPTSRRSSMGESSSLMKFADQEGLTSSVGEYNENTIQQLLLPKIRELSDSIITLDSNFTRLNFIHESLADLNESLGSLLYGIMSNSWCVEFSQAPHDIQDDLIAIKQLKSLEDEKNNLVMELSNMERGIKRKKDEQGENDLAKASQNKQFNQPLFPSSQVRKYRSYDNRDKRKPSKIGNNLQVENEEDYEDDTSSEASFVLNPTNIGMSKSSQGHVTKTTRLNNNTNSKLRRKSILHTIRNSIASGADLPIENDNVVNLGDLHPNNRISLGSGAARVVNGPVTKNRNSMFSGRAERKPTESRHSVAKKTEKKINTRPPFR
Nature of the assay: split reporter; BIFC in wild-type yeast cells (BY4743); VC173 on the N-terminus of VirD5 or its truncations, VN173 on the C-terminus of the kinetochore protein; 30°C, induction 1 h in MY medium lacking methionine; confocal microscopy.

In assay [2] the target is T2, Ipl1 (yeast Aurora kinase) fused with the N-terminal part of Venus (VN173) (yeast) (UniProt P38991).
T2 sequence: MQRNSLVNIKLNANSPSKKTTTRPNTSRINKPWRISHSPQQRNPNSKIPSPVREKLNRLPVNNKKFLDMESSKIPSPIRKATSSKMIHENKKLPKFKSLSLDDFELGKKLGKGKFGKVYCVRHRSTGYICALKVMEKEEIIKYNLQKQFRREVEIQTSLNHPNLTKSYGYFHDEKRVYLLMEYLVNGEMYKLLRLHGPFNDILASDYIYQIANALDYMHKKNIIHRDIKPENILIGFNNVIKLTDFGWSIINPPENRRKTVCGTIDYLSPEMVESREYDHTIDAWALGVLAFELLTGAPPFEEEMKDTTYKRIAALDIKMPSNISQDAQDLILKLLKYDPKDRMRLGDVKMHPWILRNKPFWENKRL
The assay is described as above.

The next assay addresses GST (empty GST). Nature of the assay: pull-down; GST-tagged proteins immobilized on Glutathione HiCap Matrix; purified His-tagged VirD5 in binding buffer (50 mM NaH2PO4, 150 mM NaCl, pH 7.2, 0.1% Triton X-100), 2 h at room temperature; Western blot with anti-His HRP antibody; both purified.

No constants are given. Whether binding was seen depends on the method and setting. For part of these data: In cells and extracts the contact can be indirect. For part of these data: A result given as binding can be weak or reduced; the word gives no strength. Where a sequence is shown, tags or fusion partners need not be part of it.

“VirD5 from the nopaline strain C58 (BIFC fusion) (from UniProt Q9JN11)”: the binding result in assay [1] and in assay [2] was “binds” in each case.

B1: His-tagged VirD5 (protein, UniProt Q9JN11 1-833)
chain: MTGKSKVHIRSSADTLPDGSITAPFSTGLSGDQADASFEAQTDYSQSTSVSFTYDGVKLGPAERAAYENWCEPGRPTWKDLIIKARVDPIDDVIWLRDLEEDTPSTFRYEGMPLGLGERKAYENWQEDAQPTWEDLVVSARMTELGRPHGITGEYTSLAGSKNTSSISLKRKRSNLIDDENSSGSFSYDGMKLGEAERSAYGDWAEAEPPTWKDLVLRARVSSINDSAWLFDSQTSSSSFEYNGVPLGEPERQALRQWQGDAQPTWEDLVVNARMAELCHAGWIEGQKGCFEKRGEALHASERGSQRPIVQRTDSSDSFLYDGRRLGAPERTAYERWSKRERPTWEDLILDAHQARIESDAVTTQAIGQSSSLVFLYEGKSLGCREREAYEKWRQPAQPRWQNLVVNARLAELDPSVWIADERDPLDDGDALGRPSYTSLTDRSDVPLDDQSIYHRSDLVREQVSESSQKQFAACSESETIPVSWFTASGLDANNTENIAASDPVDGTGGVKRLGSKSDRTVTASIHDVNSSTKRLLLNEFGLEAPRPSPEKTVRLRSDNIGTYGSRRNERMRLATETGAYESEHIFGFKAVHDTARATKEGRRLERPMPAYLEYKGLHRQHVGTGRGRTKLVGRGWPDDTSYRSDQRATLSDPVARSEGATASNGYQLNQLGYAHQLASDGLQSESPDGVALPIQVATTSYNYTVSRDPVLVPPDKNEAPQLLHLGPRGQTEAVLARETALTGKWPTLEREQQVYREFLALYDVKKDLEAKSVGVRQKKKEVSSALDRTARLIITSPSKARSEAETEKAIDELDDRRVYDPRDRAQDKAFKR
In the case of B1, the binding entry with GST (empty GST) is “no binding”.
